Some of these results come from one statement about several compounds together.
How the values were obtained:
[1] = Plasma clearance of 125I-TGF-β1 with and without α2M* and arachidonic acid; assay type: in vivo; conditions: mice, tail vein injection
Experimental: (§1) TGF ? β1-α2M* and TGF- ? 2- ? 2M* complexes are cleared from plasma by the ? liver (30). To test the possibility that fatty acids may be able to affect the plasma clearance of TGF ? β and α2M* complexes, ^125I-TGF ? β1 or ^125I-TGF- ? 2 were prei presence or absence of 10 μM arachidonic acid at room temperature for 30 min, and then injected into mice via tail vein according to published procedures (19). At several time intervals (10 sec, 1, 2, 3, 5, 10, 15, 20, 30 and 60 min) about 50 μl of blood was collected and counted by a γ-counter. […] The t 1+α2M* or ^125I-TGF- ? 2+α2M* were approximately 4 min. These twith published values of free ^125I-TGF- ? 1,2 and ^125I-TGF- ? 1,2-α2M* complexes, respe (19). In the presence of arachidonic acid, the t1/2s of ^125I-TGF ? β1+α2M* and ^125I-TGF α2M* were decreased to approximately 1-2 min; these are essentially identical to the t1/2s of free ^125I-TGF- ? 1 and ^125I-TGF ? β2 (FIGS. 7A and B). In control experiments, arachidonic acid did no affect the plasma clearance of free ^125I-TGF ? β1 and ^125I-TGF- ? 2.
(§2) Plasma clearance of ^125I-TGF ? β in the presence and absence of ? 2M*-^125I-TGF- ? 1 nM) or ^125I-TGF- ? 2 (1 nM) was pre-incubated with ? […] The radioactivity in the blood sample obtained at 10 s was taken as 100%.

[2] = Plasma clearance of 125I-TGF-β2 with and without α2M* and arachidonic acid; assay type: in vivo; conditions: mice, tail vein injection
Experimental: as §1, §2

125I-TGF-β1: TGF-β1 iodinated with Na125I using chloramine T
estimated plasma clearance half time (t1/2) [1]: 1 to 2 min

125I-TGF-β2: TGF-β2 iodinated with Na125I using chloramine T
estimated plasma clearance half time (t1/2) [2]: 1 to 2 min
